Experimental data: PubChem BioAssay AID1259308 (NCATS, 2017)
Screen: 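Candidate targets for better recombinant protein yield in mammalian cells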 (primary screen). Cells: human HEK293 embryonic kidney cells stably expressing firefly luciferase (HEK-CMV-Luc2-Hygro). Reagent: single siRNA against human genes, 0.8 pmol siRNA per well. Duration: 72 h. Measurement: 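Reporter luminescence and viable-cell signal on separate replicate plates, given as percent of non-targeting control and median/MAD z-scores, plus per-cell luciferase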. Direction: total luciferase, z-score and total luciferase, % of control: higher = more reporter protein produced; luciferase per cell, z-score: higher = more reporter output per viable cell; viable cells, % of control: higher = more viable cells. Call rule: 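Active when the median/MAD z-score for overall luciferase is greater than 3; a gene was taken forward for validation with new siRNAs if at least two of its three siRNAs passed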. Meaning of the calls: active = raised luciferase; inactive = no rise.
This is an unselected part of about 59,000 deposited reagents. Of all reagents, about 1,510 (2.6%) got an active call. 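Calls use total luciferase alone and ignore viability, so some active siRNAs may act by altering cell number.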 A number with no mark means an inactive call. Reagents against one gene are numbered here. Reagent sequences are not shown.

Gene | reagent no. | total luciferase, z-score | total luciferase, % of control | luciferase per cell, z-score | viable cells, % of control
KCND2 | 1 | 0.825 | 98.3 | 0.672 | 92
KCND2 | 2 | 1.39 | 109 | 0.713 | 101
KCND2 | 3 | 0.384 | 89.5 | 0.676 | 83.7
HHAT | 1 | -1.35 | 55.1 | -1.19 | 84.2
HHAT | 2 | 0.863 | 99.1 | 0.154 | 106
HHAT | 3 | 0.206 | 86 | -0.0587 | 97.6
FAM90A3 | 1 | 0.609 | 94 | 1.08 | 79.2
FAM90A3 | 2 | -1.08 | 60.3 | -0.245 | 71.9
FAM90A3 | 3 | -0.189 | 78.1 | 0.159 | 83.7
C1orf122 | 1 | -0.138 | 79.1 | -0.377 | 97.7
C1orf122 | 2 | -1.27 | 56.6 | 0.0705 | 62.1
C1orf122 | 3 | 0.592 | 93.7 | 0.265 | 97.6
CIC | 1 | 1.42 | 110 | 2.43 | 64.8
CIC | 2 | 0.218 | 86.2 | 0.123 | 93.3
CIC | 3 | 1.29 | 108 | 1.14 | 89
LOC344382 | 1 | 0.0626 | 83.1 | 0.49 | 81.7
LOC344382 | 2 | -0.958 | 62.8 | -0.854 | 87.9
LOC344382 | 3 | -0.0248 | 81.4 | -0.00261 | 91
ARB2A | 1 | -1.01 | 61.8 | -1.08 | 91.7
ARB2A | 2 | 0.753 | 96.9 | 0.856 | 86.4
ARB2A | 3 | -0.109 | 79.7 | -0.433 | 99.9
DYNLL1 | 1 | -0.315 | 75.6 | -0.156 | 88
DYNLL1 | 2 | 0.846 | 98.7 | 0.618 | 93.7
DYNLL1 | 3 | 2.47 | 131 | 1.57 | 96.9
HS1BP3 | 1 | 0.832 | 98.4 | 1.75 | 69.4
HS1BP3 | 2 | -1.22 | 57.6 | -0.27 | 69.1
HS1BP3 | 3 | 0.158 | 85 | -0.0353 | 95.9
TMEM200A | 1 | 0.012 | 82.1 | -0.806 | 113
TMEM200A | 2 | -0.0356 | 81.2 | -0.0295 | 91.4
TMEM200A | 3 | -0.212 | 77.7 | -0.615 | 102
GCNT2 | 1 | -0.0588 | 80.7 | 0.398 | 81.2
GCNT2 | 2 | -1.09 | 60.2 | -1.2 | 92.2
GCNT2 | 3 | -2.07 | 40.7 | -2.43 | 86.2
TUSC3 | 1 | 0.611 | 94 | -0.292 | 113
TUSC3 | 2 | 1.73 | 116 | 1.59 | 85.6
TUSC3 | 3 | 0.0405 | 82.7 | -0.114 | 95.2
CATSPERE | 1 | -0.184 | 78.2 | -0.346 | 95.7
CATSPERE | 2 | -0.00287 | 81.8 | -0.265 | 98.1
CATSPERE | 3 | -0.664 | 68.7 | -0.123 | 79.3
PFN1 | 1 | -1.34 | 55.3 | -1.04 | 81.4
PFN1 | 2 | 0.729 | 96.4 | 1.37 | 75.1
PFN1 | 3 | -0.417 | 73.6 | 0.703 | 68.3
CARD16 | 1 | -0.494 | 72.1 | -0.842 | 100
CARD16 | 2 | 0.188 | 85.6 | -0.0674 | 97.4
CARD16 | 3 | -1.26 | 56.7 | -1.89 | 104
CTF1 | 1 | 1.59 | 113 | 0.973 | 98.1
CTF1 | 2 | 2.5 | 132 | 1.91 | 88.8
CTF1 | 3 | 0.661 | 95 | 0.566 | 91.5
FOLR2 | 1 | 0.468 | 91.2 | 1.66 | 65.8
FOLR2 | 2 | -1.26 | 56.9 | -0.992 | 82.6
FOLR2 | 3 | -0.111 | 79.7 | -0.334 | 97.2
COBLL1 | 1 | -0.174 | 78.4 | -0.724 | 106
COBLL1 | 2 | -0.0164 | 81.6 | -0.312 | 99
COBLL1 | 3 | -0.356 | 74.8 | -0.48 | 94.9
YTHDF2 | 1 | 1.29 | 108 | 2.01 | 70.9
YTHDF2 | 2 | 2.31 | 128 | 1.75 | 90.2
YTHDF2 | 3 | 2.88 | 139 | 1.67 | 100
